## Library screen at single concentrations

By UniProt entry, the sequences of proteins in these tests, tags left out.
UniProt I6X8D2, whole entry: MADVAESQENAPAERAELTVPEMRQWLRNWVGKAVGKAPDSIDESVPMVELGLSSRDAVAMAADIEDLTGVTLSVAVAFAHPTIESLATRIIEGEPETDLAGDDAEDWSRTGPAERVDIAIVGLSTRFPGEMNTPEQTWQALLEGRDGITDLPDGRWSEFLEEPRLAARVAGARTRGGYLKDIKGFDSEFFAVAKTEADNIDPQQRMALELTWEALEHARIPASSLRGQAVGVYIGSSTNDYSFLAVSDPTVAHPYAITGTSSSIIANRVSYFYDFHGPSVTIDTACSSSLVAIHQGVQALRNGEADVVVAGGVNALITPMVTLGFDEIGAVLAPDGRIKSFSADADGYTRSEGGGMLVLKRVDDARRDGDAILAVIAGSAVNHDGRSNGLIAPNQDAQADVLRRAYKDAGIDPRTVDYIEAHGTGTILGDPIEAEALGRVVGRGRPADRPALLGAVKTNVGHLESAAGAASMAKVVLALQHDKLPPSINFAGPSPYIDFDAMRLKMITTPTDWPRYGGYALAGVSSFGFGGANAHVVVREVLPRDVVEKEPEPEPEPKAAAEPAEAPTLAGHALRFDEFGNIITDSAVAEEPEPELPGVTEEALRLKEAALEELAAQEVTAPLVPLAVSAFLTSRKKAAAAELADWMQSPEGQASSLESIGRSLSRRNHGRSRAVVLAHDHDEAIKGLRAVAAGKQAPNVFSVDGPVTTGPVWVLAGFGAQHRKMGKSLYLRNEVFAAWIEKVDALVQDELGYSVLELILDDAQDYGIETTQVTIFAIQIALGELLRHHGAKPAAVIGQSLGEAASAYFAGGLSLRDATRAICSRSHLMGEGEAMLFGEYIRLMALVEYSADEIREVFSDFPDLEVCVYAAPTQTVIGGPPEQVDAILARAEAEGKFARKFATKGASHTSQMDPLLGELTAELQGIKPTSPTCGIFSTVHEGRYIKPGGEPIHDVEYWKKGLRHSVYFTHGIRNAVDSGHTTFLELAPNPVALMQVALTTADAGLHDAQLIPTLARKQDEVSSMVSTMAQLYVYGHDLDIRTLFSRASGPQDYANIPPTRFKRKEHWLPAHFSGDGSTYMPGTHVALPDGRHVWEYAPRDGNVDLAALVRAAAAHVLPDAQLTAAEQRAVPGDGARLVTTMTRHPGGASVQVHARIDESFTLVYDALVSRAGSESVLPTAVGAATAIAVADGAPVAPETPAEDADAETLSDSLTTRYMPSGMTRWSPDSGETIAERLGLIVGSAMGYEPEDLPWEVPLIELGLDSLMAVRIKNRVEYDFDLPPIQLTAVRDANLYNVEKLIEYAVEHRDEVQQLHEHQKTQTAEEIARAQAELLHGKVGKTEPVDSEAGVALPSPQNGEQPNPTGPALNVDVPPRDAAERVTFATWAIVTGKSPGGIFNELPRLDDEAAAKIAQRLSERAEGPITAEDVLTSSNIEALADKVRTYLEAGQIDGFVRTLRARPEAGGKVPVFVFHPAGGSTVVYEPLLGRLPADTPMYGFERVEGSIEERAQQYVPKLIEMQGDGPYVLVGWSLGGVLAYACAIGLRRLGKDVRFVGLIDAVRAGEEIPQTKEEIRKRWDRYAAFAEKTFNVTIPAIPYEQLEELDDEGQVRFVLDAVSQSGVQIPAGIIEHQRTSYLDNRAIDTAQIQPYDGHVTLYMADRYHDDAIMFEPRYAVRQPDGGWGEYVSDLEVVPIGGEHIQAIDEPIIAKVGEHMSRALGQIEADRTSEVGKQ

The values are deposited in ChEMBL (CHEMBL3988442, “University of Dundee, Small-Polar-MMV Screening Library” (2021)).

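Enzyme assay of the thioesterase domain of polyketide synthase 13; the read-out is not stated. Target: Polyketide synthase Pks13, Mycobacterium tuberculosis (UniProt I6X8D2). Tested at 30 µM. The record gives no direction; the compounds picked for IC50 retests had high values, so higher reads as stronger inhibition. Size under these conditions: about 67,000 compounds, about 300 of them at 50% or above in at least one test.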

Each number is a percent effect as filed.
The controls that fix the scale are not given in the record; negative values are as filed.
Compounds were drawn at random from those tested, without regard to their results.

Compound	effect
N[C@@H]1c2ccccc2C2(CCN(C(=O)c3ccc(Cl)cn3)CC2)[C@H]1O	-17.99%
CN1CCOC(C)(C(=O)N2CCSCC2)C1 (centres undefined)	10.08%
CC(C)CCC(C)NC(=O)CN1C=Nc2ccccc2S1(=O)=O (centres undefined)	-13.81%
CC(C)N1CC(C(=O)NCCOc2ccc3c(c2)OCO3)CC1=O (centres undefined)	-17.44%
N#Cc1ccc(Cl)cc1NCC1CC1	-3.303%
CNc1ncccc1CN1CCN(C)CC(C(=O)N(C)C)C1 (centres undefined)	-7.033%
CC(C)CC(NC(=O)c1ccn(C)c(=O)c1)c1ccccc1 (centres undefined)	-10.25%
Cn1nc2c(cc1=O)CN(Cc1nc(-c3cccs3)no1)CC2	-7.764%
CN(C)C(=O)[C@H]1C[C@@H]2CN(C(=O)NCC3CCCCC3)C[C@H]1O2	-22.28%
O=C(COc1ccc2c(c1)CCC2)NS(=O)(=O)c1cccnc1	-10.45%
CCN(CC)CC1CN(Cc2c(C)noc2C)Cc2nccn2C1 (centres undefined)	-22.02%
Cn1nccc1C(=O)N1CCCC1c1[nH]ncc1C(N)=O (centres undefined)	7.556%
Fc1ccc(CN2CCCN(Cc3cscn3)CC2)cc1	-25.02%
CCN(Cc1ccccc1)S(=O)(=O)C1CCS(=O)(=O)CC1	-11.54%
CCO[C@@H]1CN(Cc2scnc2C)[C@@H]2CCCO[C@@H]21	-25.52%
CCN1CCN(C(=O)c2nc(C)n(-c3ccccc3Cl)n2)CC1	-15.72%
CCCC(C)(C)NC(=O)c1ccc(CC2CC(=O)NC2=O)cc1 (centres undefined)	-18.61%
Cc1csc(CNC(=O)NCC(O)c2ccc(F)cc2F)n1 (centres undefined)	26.68%
O=C(Nc1cccnc1)[C@H]1CN(Cc2ccccn2)C[C@H]2OCC[C@@H]12	-8.122%
Cc1ccc2c(n1)N(CC1CC1)CCN(Cc1ccco1)C2	-37.29%
CC(NC(=O)Cn1cccn1)c1ccc2c(c1)OCCCO2 (centres undefined)	-20.13%
O=C(Nc1nccs1)c1csc(NC2CCCC2)n1	-13.06%
Cc1cc(C)n(CCC(=O)N2CCCC(n3nc(C)nc3C)C2)n1 (centres undefined)	-14.03%
CN1CC(c2ccccc2)CC12CCN(C(=O)c1cccnc1)CC2 (centres undefined)	-2.362%
Cn1cc(C2CCCN2C(=O)Cc2coc(-c3ccccc3)n2)cn1 (centres undefined)	-24.4%
CC(c1nc(C2CC2)no1)N1CCN(Cc2ccsc2)CC1 (centres undefined)	3.391%
NC(=O)[C@H]1CCCN(c2nccc(-c3ccncc3)n2)C1	10.06%
O=C(c1ccncn1)N1CCC[C@]2(C[C@@H](OCC3CC3)CO2)C1	-13.72%
CCc1nnc(Nc2cccc(C3CCN(C(=O)CNC)CC3)n2)s1	-24.54%
CNC(=O)c1sc2ccccc2c1CC1CCCN1Cc1cnc(C)s1 (centres undefined)	0.3059%
Clc1cnccc1N1CCCC2(CCCOC2)C1 (centres undefined)	-233%
CCO[C@@H]1CC[C@H]2[C@H]1OCCN2CC1CCC1	5.09%
CCC(CC)C(=O)NCc1c(C)nn(C)c1N1CCCN(C)CC1	-19.75%
O=C(CO)N1C[C@H]2CC[C@@H]1CN(C1Cc3ccccc3C1)C2	-4.106%
COc1ccc(C(=O)N2CC(=O)N(C3CCC3)CC(O)C2)c(OC)c1 (centres undefined)	9.464%
CC(=O)NCc1cc2n(n1)CCN(Cc1cc(-c3ccccc3)no1)C2	6.916%
CN(Cc1ccccc1)S(=O)(=O)N1C[C@@H](C(=O)O)[C@H](C2CC2)C1	-17.4%
CC(NC(=O)NC1CCN(Cc2ccccn2)CC1)c1ccco1 (centres undefined)	-15.53%
CCc1ncc(C(=O)N2CCn3c(CC)nnc3C2)s1	-8.406%
CC(C)n1ccnc1C1CCCN(c2ncccc2C(N)=O)C1 (centres undefined)	-28.17%
Cc1cnccc1CN1C[C@@H](O)[C@H](Oc2ccccc2)C1	-23.22%
Cc1ccccc1CN1CCC(NCC2CNc3ccnn3C2)CC1 (centres undefined)	-15.04%
OCC1(O)CCCN(Cc2ccccc2OCCc2ccccc2)CC1 (centres undefined)	-34.06%
N#Cc1cccc(CN2CCC3(CC2)CC(c2ccncc2)C(=O)N3)c1 (centres undefined)	-11.09%
CSCc1cccc(S(=O)(=O)N2CCC(C)CC2)c1	-9.177%
CCS(=O)(=O)N1CCc2ccc(NC(=O)NCCc3ccccc3)cc21	10.5%
Cc1[nH]nc(CCC(=O)NCC2CCN(C3CCCCC3)C2)c1C (centres undefined)	-4.927%
O=C(c1cnc(O)c(Cl)c1)N1CCCC(c2nccs2)C1 (centres undefined)	5.812%
Cn1ccnc1C(NCc1ccccc1)c1ccc(F)cc1 (centres undefined)	-26.8%
CC1CCN(CC(O)CNc2ccc(Cl)cn2)CC1 (centres undefined)	-15.46%
COc1cc(-c2cc(NC3CCCC3)nc3[nH]ccc23)nc(N)n1	36.12%
COCC(=O)NC(c1ccccc1)c1ccc2c(c1)CCCO2 (centres undefined)	-21.79%
COc1cccc2c1ccn2CCC(=O)NCCCC(=O)O	-9.109%
Cc1ccc(S(=O)(=O)N2CCOCC2C#N)c(F)c1 (centres undefined)	9.439%
Cc1ccccc1-c1csc2c(=O)[nH]c(N3CCCC(C(=O)O)C3)nc12 (centres undefined)	4.704%
Cc1cnc(N2CCC3(CCCN(c4ncc(F)cn4)C3)C2)nc1 (centres undefined)	-1.731%
O=C(CCN1C[C@@H]2CC[C@H]1C2)N1CCN(c2cccc(Cl)c2)C(=O)C1	-20.97%
COC(=O)[C@H](C)NC(=O)Cn1ccc2ccc(F)cc21	-13%
O=C(c1ccncc1)N1CCC2(CC1)CCN(Cc1ccccn1)C2=O	-11.57%
Cc1cccc(-c2nc(CN3CCCCC3Cn3cncn3)no2)c1 (centres undefined)	-6.87%
CC(NC(=O)COc1ccc(F)cc1)c1nnc2n1CCCCC2 (centres undefined)	-3.329%